Source: PubChem BioAssay AID1224828 (NIAID, 2016)
Screen: 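Find genes required for NF-kappaB p65 moving into the nucleus after LPS in mouse macrophages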 (primary screen). Cells: mouse RAW264.7 G9 macrophage reporter cells (GFP-p65, Tnf promoter-mCherry). Reagent: siRNA pool against mouse genes, 100 nM. Time to read-out: 2 days siRNA transfection, then 40 min LPS before fixation. Treatment: LPS (Salmonella minnesota R595) at 10 ng/ml. Detection: 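Microscopy ratio of nuclear to perinuclear-ring GFP-p65 signal, scaled to the plate median; gene score is the average of two replicate robust z-scores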. Direction: p65 translocation robust z-score: higher = more nuclear NF-kappaB p65 after LPS than the plate median; nuclear/cytoplasmic p65 ratio: higher = more nuclear NF-kappaB p65. Active means: 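Active if robust z is above 3.3 (negative regulators) or below -1.56, the Tlr4 control median (positive regulators); activity score 50 or more; control wells not called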. Meaning of the calls: active = hit (p65 shift raised or lowered); inactive = no clear change.
This is an unselected part of about 17,000 reagents tested. Over the whole deposit, 762 (4.5%) were called active. 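Active calls include both raised and lowered p65 entry, mostly lowered; wells with fewer than 50 cells lack a z-score.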 Raw values vary from plate to plate and are shown uncorrected. A number with no mark means an inactive call.

gene,p65 translocation robust z-score,"nuclear/cytoplasmic p65 ratio, rep 1","nuclear/cytoplasmic p65 ratio, rep 2",low cell count flag
Nptx2 (neuronal pentraxin 2),0.29,1.86,1.49,enough cells to score
"Col15a1 (collagen, type XV, alpha 1)",-1.05,1.37,1.2,enough cells to score
Agfg2 (ArfGAP with FG repeats 2),-0.94,1.54,1.38,enough cells to score
Acaca (acetyl-Coenzyme A carboxylase alpha),0.9,1.8,1.7,enough cells to score
Fgf20 (fibroblast growth factor 20),0.66,1.51,1.47,enough cells to score
Efna3 (ephrin A3),0.8,1.63,1.42,enough cells to score
Ggt1 (gamma-glutamyltransferase 1),0.16,1.44,1.41,enough cells to score
Ccdc32 (coiled-coil domain containing 32),2.24,1.79,2.05,enough cells to score
"Prl2c3 (prolactin family 2, subfamily c, member 3)",1.32,1.53,1.38,enough cells to score
"Mybpc1 (myosin binding protein C, slow-type)",,1.24,1.28,fewer than 50 cells per well; well left out of scoring
Ptcra (pre T cell antigen receptor alpha),-0.76,1.36,1.33,enough cells to score
Or2t1 (olfactory receptor family 2 subfamily T member 1),1.47,1.86,1.59,enough cells to score
Trh (thyrotropin releasing hormone),-0.93,1.4,1.36,enough cells to score
Mpzl1 (myelin protein zero-like 1),-0.1,1.62,1.36,enough cells to score
Hcrtr1 (hypocretin (orexin) receptor 1),-1.47,1.25,1.18,enough cells to score
Gdpd3 (glycerophosphodiester phosphodiesterase domain containing 3),0.16,1.52,1.53,enough cells to score
Rasa3 (RAS p21 protein activator 3),-0.94,1.39,1.32,enough cells to score
Pex16 (peroxisomal biogenesis factor 16),-0.72,1.34,1.33,enough cells to score
Cerk (ceramide kinase),1.38,2.02,1.47,enough cells to score
Edil3 (EGF-like repeats and discoidin I-like domains 3),0.35,1.59,1.4,enough cells to score
"Ugt2a1 (UDP glucuronosyltransferase 2 family, polypeptide A1)",0.28,1.37,1.26,enough cells to score
Kctd12b (potassium channel tetramerisation domain containing 12b),1.48,1.35,1.63,enough cells to score
Shkbp1 (Sh3kbp1 binding protein 1),,0,1.13,fewer than 50 cells per well; well left out of scoring
Cd34 (CD34 antigen),0.32,1.51,1.42,enough cells to score

Reprinted from above for reference:
gene,p65 translocation robust z-score,"nuclear/cytoplasmic p65 ratio, rep 1","nuclear/cytoplasmic p65 ratio, rep 2",low cell count flag
Ggt1 (gamma-glutamyltransferase 1),0.16,1.44,1.41,enough cells to score
Ccdc32 (coiled-coil domain containing 32),2.24,1.79,2.05,enough cells to score
